Data: article PMC5118696, “Identification of inhibitors that dually target the new permeability pathway and dihydroorotate dehydrogenase in the blood stage of Plasmodium falciparum” (Scientific Reports, 2016)
Like-named read-outs stand apart in the source and are kept apart here.

Columns and labels:
[1] = system: Hyp1-NLuc Plasmodium falciparum-infected erythrocytes (new permeability pathway, NPP); experiment: microbe, parasite or virus in culture; conditions: Erythrocyte, 0.33 h, read-out: % of control remaining
[2] = system: Hyp1-NLuc Plasmodium falciparum-infected erythrocytes (new permeability pathway, NPP); experiment: microbe, parasite or virus in culture; conditions: Erythrocyte, 0.33 h, read-out: Mean RLU at 28 min (As % of DMSO control)

Structure (SMILES): C=CC12CCN(CC1)C(C(O)c1ccnc3ccc(OC)cc13)C2 (centres unmarked) [MMV665782]
- activity at 2 µM [1]: 100%
- activity at 2 µM [2]: 102%
